Assay: general procedure: Fmoc solid-phase peptide synthesis; Rink Amide MBHA resin (0.66 mmol/g loading)
Settings: whole synthesis, analytical RP-HPLC, scale of the general procedure 10 g resin, acetate

Ac-[Pen]*-N-T-[W(7-Me)]-[Lys(Ac)]-[Pen]*-Phe[4-(2-aminoethoxy)]-[2-Nal]-[THP]-E-N-[3-Pal]-Sarc-NH2 (*Pen-Pen form disulfide bond)
final HPLC purity: >95%

From patent US11939361B2 (Janssen Pharmaceutica NV, priority 2020, dated 2024)
